Results on four molecules are retold here after publication PMC9249674, “A small-molecule Skp1 inhibitor elicits cell death by p53-dependent mechanism” (iScience, 2022).

The target of test [1] is mCherry-Skp1 (N-terminally mCherry-fused Skp1, WT) (human) (UniProt P63208). Kind of test: FRET or BRET; cell-based FRET in HEK293 cells co-transfected with mCherry-Skp1 and copGFP-fused F-box protein, 48 hrs, 96-well format; also with Z0933M (4 hrs) or 6-OAP. A general note: BRET reads energy transfer from a luciferase to a nearby fluorophore.
For test [2], the target named is Skp1 (endogenous, A549 cells) (human (endogenous in A549)) (UniProt P63208). Put plainly: co-IP; endogenous Skp1 immunoprecipitated (protein A/G Plus beads with antibody) from A549 lysates in TNE buffer, Western blot; cells untreated or treated with Z0933M (doses and times, 4 h and 12 h). In general terms: In western blotting, separated proteins are transferred to a membrane and probed.

The target in test [3] is Flag-Skp1^F139A (human) (UniProt P63208). Put plainly: co-IP; A549 cells transiently transfected with Flag-Skp1 WT or mutant plasmids, anti-FLAG M2 magnetic beads, Western blot for endogenous F-box proteins.
Test [4] has as its target Flag-Skp1^F101A (human) (UniProt P63208). Described as above.
Test [5] has as its target Flag-Skp1 WT (human) (UniProt P63208). The description is as above.
Test [6] shares this target. Kind of test: co-IP; as a4, cells treated with Z0933M.

No constants are given. Whether binding was seen depends on the method and setting. Binding seen in cells or lysates may run through a third protein. Some entries that bind do so weakly or less than the wild type. For some assays here: Sequences can lack the tags named with a protein.

B1: NIPA-copGFP (C-terminally copGFP-fused NIPA) (protein, UniProt Q86WB0 1-502)
chain: MAAPCEGQAFAVGVEKNWGAVVRSPEGTPQKIRQLIDEGIAPEEGGVDAKDTSATSQSVNGSPQAEQPSLESTSKEAFFSRVETFSSLKWAGKPFELSPLVCAKYGWVTVECDMLKCSSCQAFLCASLQPAFDFDRYKQRCAELKKALCTAHEKFCFWPDSPSPDRFGMLPLDEPAILVSEFLDRFQSLCHLDLQLPSLRPEDLKTMCLTEDKISLLLHLLEDELDHRTDERKTTIKLGSDIQVHVTACILSVCGWACSSSLESMQLSLITCSQCMRKVGLWGFQQIESSMTDLDASFGLTSSPIPGLEGRPERLPLVPESPRRMMTRSQDATFSPGSEQAEKSPGPIVSRTRSWDSSSPVDRPEPEAASPTTRTRPVTRSMGTGDTPGLEVPSSPLRKAKRARLCSSSSSDTSSRSFFDPTSQHRDWCPWVNITLGKESRENGGTEPDASAPAEPGWKAVLTILLAHKQSSQPAETDSMSLSEKSRKVFRIFRQWESLCSC
On to B1, for which, in test [1], the binding entry is listed as “binds”.

B2: NIPA (endogenous, A549 cells) (protein, UniProt Q86WB0 1-502)
chain: MAAPCEGQAFAVGVEKNWGAVVRSPEGTPQKIRQLIDEGIAPEEGGVDAKDTSATSQSVNGSPQAEQPSLESTSKEAFFSRVETFSSLKWAGKPFELSPLVCAKYGWVTVECDMLKCSSCQAFLCASLQPAFDFDRYKQRCAELKKALCTAHEKFCFWPDSPSPDRFGMLPLDEPAILVSEFLDRFQSLCHLDLQLPSLRPEDLKTMCLTEDKISLLLHLLEDELDHRTDERKTTIKLGSDIQVHVTACILSVCGWACSSSLESMQLSLITCSQCMRKVGLWGFQQIESSMTDLDASFGLTSSPIPGLEGRPERLPLVPESPRRMMTRSQDATFSPGSEQAEKSPGPIVSRTRSWDSSSPVDRPEPEAASPTTRTRPVTRSMGTGDTPGLEVPSSPLRKAKRARLCSSSSSDTSSRSFFDPTSQHRDWCPWVNITLGKESRENGGTEPDASAPAEPGWKAVLTILLAHKQSSQPAETDSMSLSEKSRKVFRIFRQWESLCSC
For the molecule B2, the binding result in test [2] is “binds”.

B3: KDM2B (endogenous, A549 cells) (protein, UniProt Q8NHM5 1-1336)
chain: MAGPQMGGSAEDHPPRKRHAAEKQKKKTVIYTKCFEFESATQRPIDRQRYDENEDLSDVEEIVSVRGFSLEEKLRSQLYQGDFVHAMEGKDFNYEYVQREALRVPLIFREKDGLGIKMPDPDFTVRDVKLLVGSRRLVDVMDVNTQKGTEMSMSQFVRYYETPEAQRDKLYNVISLEFSHTKLEHLVKRPTVVDLVDWVDNMWPQHLKEKQTEATNAIAEMKYPKVKKYCLMSVKGCFTDFHIDFGGTSVWYHVFRGGKIFWLIPPTLHNLALYEEWVLSGKQSDIFLGDRVERCQRIELKQGYTFFIPSGWIHAVYTPVDSLVFGGNILHSFNVPMQLRIYEIEDRTRVQPKFRYPFYYEMCWYVLERYVYCVTQRSHLTQEYQRESMLIDAPRKPSIDGFSSDSWLEMEEEACDQQPQEEEEKDEEGEGRDRAPKPPTDGSTSPTSTPSEDQEALGKKPKAPALRFLKRTLSNESEESVKSTTLAVDYPKTPTGSPATEVSAKWTHLTEFELKGLKALVEKLESLPENKKCVPEGIEDPQALLEGVKNVLKEHADDDPSLAITGVPVVTWPKKTPKNRAVGRPKGKLGPASAVKLAANRTTAGARRRRTRCRKCEACLRTECGECHFCKDMKKFGGPGRMKQSCIMRQCIAPVLPHTAVCLVCGEAGKEDTVEEEEGKFNLMLMECSICNEIIHPGCLKIKESEGVVNDELPNCWECPKCNHAGKTGKQKRGPGFKYASNLPGSLLKEQKMNRDNKEGQEPAKRRSECEEAPRRRSDEHSKKVPPDGLLRRKSDDVHLRKKRKYEKPQELSGRKRASSLQTSPGSSSHLSPRPPLGSSLSPWWRSSLTYFQQQLKPGKEDKLFRKKRRSWKNAEDRMALANKPLRRFKQEPEDELPEAPPKTRESDHSRSSSPTAGPSTEGAEGPEEKKKVKMRRKRRLPNKELSRELSKELNHEIQRTENSLANENQQPIKSEPESEGEEPKRPPGICERPHRFSKGLNGTPRELRHQLGPSLRSPPRVISRPPPSVSPPKCIQMERHVIRPPPISPPPDSLPLDDGAAHVMHREVWMAVFSYLSHQDLCVCMRVCRTWNRWCCDKRLWTRIDLNHCKSITPLMLSGIIRRQPVSLDLSWTNISKKQLSWLINRLPGLRDLVLSGCSWIAVSALCSSSCPLLRTLDVQWVEGLKDAQMRDLLSPPTDNRPGQMDNRSKLRNIVELRLAGLDITDASLRLIIRHMPLLSKLHLSYCNHVTDQSINLLTAVGTTTRDSLTEINLSDCNKVTDQCLSFFKRCGNICHIDLRYCKQVTKEGCEQFIAEMSVSVQFGQVEEKLLQKLS
In the case of B3, the binding result in test [2] was “binds”.

B4: cyclin F (endogenous, A549 cells) (protein, UniProt P41002 1-786)
chain: MGSGGVVHCRCAKCFCYPTKRRIRRRPRNLTILSLPEDVLFHILKWLSVEDILAVRAVHSQLKDLVDNHASVWACASFQELWPSPGNLKLFERAAEKGNFEAAVKLGIAYLYNEGLSVSDEARAEVNGLKASRFFSLAERLNVGAAPFIWLFIRPPWSVSGSCCKAVVHESLRAECQLQRTHKASILHCLGRVLSLFEDEEKQQQAHDLFEEAAHQGCLTSSYLLWESDRRTDVSDPGRCLHSFRKLRDYAAKGCWEAQLSLAKACANANQLGLEVRASSEIVCQLFQASQAVSKQQVFSVQKGLNDTMRYILIDWLVEVATMKDFTSLCLHLTVECVDRYLRRRLVPRYRLQLLGIACMVICTRFISKEILTIREAVWLTDNTYKYEDLVRMMGEIVSALEGKIRVPTVVDYKEVLLTLVPVELRTQHLCSFLCELSLLHTSLSAYAPARLAAAALLLARLTHGQTQPWTTQLWDLTGFSYEDLIPCVLSLHKKCFHDDAPKDYRQVSLTAVKQRFEDKRYGEISQEEVLSYSQLCAALGVTQDSPDPPTFLSTGEIHAFLSSPSGRRTKRKRENSLQEDRGSFVTTPTAELSSQEETLLGSFLDWSLDCCSGYEGDQESEGEKEGDVTAPSGILDVTVVYLNPEQHCCQESSDEEACPEDKGPQDPQALALDTQIPATPGPKPLVRTSREPGKDVTTSGYSSVSTASPTSSVDGGLGALPQPTSVLSLDSDSHTQPCHHQARKSCLQCRPPSPPESSVPQQQVKRINLCIHSEEEDMNLGLVRL
With B4, the binding result in test [3] was “binds”; in test [4] it was “binds”; in test [5] it was “binds”; in test [2] it was “binds”; in test [6], “no binding (condition: cells treated with Z0933M)”.
